No constants are given. Whether binding was seen depends on the method and setting. Binding seen in cells or lysates may run through a third protein. A result given as binding can be weak or reduced; the word gives no strength. Sequences can lack the tags named with a protein.

This test concerns the target T1, Human recombinant His-JDP2 protein (human) (UniProt Q8WYK2).
T1 sequence: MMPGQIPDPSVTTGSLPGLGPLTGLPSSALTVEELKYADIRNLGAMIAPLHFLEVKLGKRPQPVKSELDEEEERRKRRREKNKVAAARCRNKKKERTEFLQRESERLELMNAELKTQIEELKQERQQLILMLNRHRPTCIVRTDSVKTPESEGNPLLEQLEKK
Kind of test: co-IP; in vitro binding assay: recombinant His-tagged JDP2 mixed with recombinant Histone 3 or Histone 4, precipitated with anti-His antibody; with Flag-immunoprecipitates from cells transfected with 0, 1.0 and 5.0 μg Flag-β-catenin plasmid; both purified.

As for recombinant Histone 3, the binding result is on record as “binds”.

On to recombinant Histone 4, for which the binding result is recorded as “binds”.
